Results from PubChem BioAssay AID1259415 (National Center for Advancing Translational Sciences (NCATS), 2018).
The campaign covered roughly 410,000 compounds. About 18,000 (4.4%) were called active. The shares of active, inactive and inconclusive entries below differ from those in the screen. No stated cut-off is given here; in the data, active means activity change below about -60%; inconclusive means no clear call, values can overlap the other calls; inactive means above about -39%.

Experiment: qHTS Assay for inhibitors of the human cytomegalovirus (HCMV)
Details: HFF cells, HCMV-luciferase reporter, 72 h; at 57.5 µM; active compounds read low
How it was run: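 Human foreskin fibroblasts infected with luciferase-reporter HCMV at MOI 1 PFU/cell, compounds at two doses. Luciferase measured 72 h post infection; normalized to buffer-only basal and Salinomycin (10uM) controls.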
On the % scale 0 is the no-effect control and ±100 the full control effect.

SMILES | activity change, negative = inhibition
Clc1ccc(-c2nc3c4cnn(-c5ccccc5Br)c4ncn3n2)c(Cl)c1 | inconclusive: -45.3%
Cc1nc2ccccc2nc1OCc1ccccc1 | inactive: -20.7%
CN(C)S(=O)(=O)c1ccc(NC(=O)CSc2nnc(-c3ccco3)n2N)cc1 | inconclusive: -45.4%
CN(C)c1cccc2c(S(=O)(=O)N3CCCC3)cccc12 | inactive: -6.13%
Cc1cc(C)cc(-n2ccn(Cc3ccccc3C)c(=O)c2=O)c1 | inconclusive: -47.2%
COc1cccc(-c2nnc(SCC(=O)Nc3cc(C)on3)o2)c1 | inactive: -29.4%
COc1cc(CC2C(=O)Nc3ccccc32)cc(C)c1O (stereo not drawn) | inactive: -31.3%
COc1ccccc1Cn1c(/C=C/c2ccccc2)nc2ccccc21 | inactive: -24.5%
CCn1c(SCc2cccc(F)c2)nnc1-c1cccnc1 | inconclusive: -50.3%
O=C(Nc1ccc(-c2csc(Nc3ccccc3)n2)cc1)c1ccccc1 | active: -63.1%
CSc1ccc(/C=N/NC(=O)CN2CCN(Cc3ccc(Cl)cc3)CC2)cc1 | inconclusive: -53.8%
COc1ccc(-c2noc(C3CCCN(C(=O)c4ccc(C)cc4)C3)n2)cc1 (stereo not drawn) | inconclusive: -44.8%
CCOC(=O)C1(CCc2ccccc2)CCN(Cc2cccc3c2OCO3)CC1 | inconclusive: -46.2%
CCc1ccccc1NC(=O)CNC(=O)CCC(=O)c1cc(C)sc1C | inactive: -18.3%
Cc1cccc(NC(=O)c2ccc(NC(C)c3ccccc3)c([N+](=O)[O-])c2)n1 (stereo not drawn) | inactive: 5.03%
COc1ccc(/C(C)=N/NC(=S)NCCc2ccccc2)c(O)c1 | inconclusive: -54.7%
Cc1csc(-c2cc(C(=O)NCc3ccc(F)cc3)n[nH]2)c1 | active: -64.1%
CCc1ccc(C2=NN(CCC(=O)NCCc3ccc(OC)c(OC)c3)C(=O)CC2)cc1 | inconclusive: -52.3%
Cc1ccc2nsnc2c1S(=O)(=O)N(Cc1ccco1)Cc1cc2ccc(C)c(C)c2[nH]c1=O | active: -85.3%
O=C(c1cc2ccccc2oc1=O)N(Cc1cccs1)Cc1cccs1 | inconclusive: -40.2%
CC12CC[C@H]3[C@@H](CCC4(O)C[C@H](O)CCC34/C=N/NC(=O)c3ccccc3[N+](=O)[O-])C1(O)CCC2C1=CC(=O)OC1 (stereo partly drawn) | active: -77.7%
CCOC(=O)c1ccc(S(=O)(=O)Nc2nc3cc(S(=O)(=O)NC4=NCCCCC4)ccc3s2)cc1 | inactive: -0.324%
Cc1ccc(Cl)cc1NC(=O)c1cc(NC(=O)C2CCCCC2C(=O)O)ccc1N1CCOCC1 (stereo not drawn) | inactive: -4.8%
CCOC(=O)C1=CCN(S(=O)(=O)c2ccc(C)cc2)C1c1ccc(Cl)cc1 (stereo not drawn) | inconclusive: -48.6%
COc1ccccc1CNS(=O)(=O)c1ccc(-c2cnc(C3CC3)o2)cc1 | inconclusive: -58.6%
COc1ccccc1NC(=S)N1CCN(Cc2ccccc2)CC1 | inconclusive: -46.1%
OCC[C@H]1C[C@H](O)[C@@H](O)[C@]2(Cc3ccccc3CO2)O1 | inconclusive: -46.3%

SMILES | activity change, negative = inhibition
CCCn1c(SCC(=O)Nc2ccccc2N2CCCCC2)nc2c1c(=O)n(C)c(=O)n2C | inconclusive: -45.3%
CCOC(=O)c1sc(NC(=O)c2ccc(OC(C)=O)cc2)nc1C | active: -81.9%
COc1ccc(NC(=O)C2CCN(c3nnnn3-c3ccccc3)CC2)cc1 | inconclusive: -46.2%
Cc1ccc(-n2nc3c(=O)n(CCCC(=O)NCc4ccc(C)o4)nc(C)c3c2C)cc1 | inconclusive: -54.4%
COc1cc2c(cc1NC(=O)COc1ccc(Cl)cc1Br)oc1ccccc12 | inactive: -7.17%
O=C(CNC(=O)c1cccc(F)c1)N/N=C/c1ccc(O)c([N+](=O)[O-])c1 | inconclusive: -44.1%
C=CC[C@@H](CC(=O)N[C@H](CO)Cc1ccccc1)C(=O)N[C@@H](C)COC(=O)[C@@H](CC=C)CC(=O)OC(C)(C)C | active: -60.2%
O=C(CSc1nnc(SCc2ccccc2)s1)N/N=C/c1c(Cl)cccc1Cl | inconclusive: -53.5%
Cn1nc(C(C)(C)C)cc1C(=O)N1CCCCC1c1cc(C(=O)Nc2ccccc2Cl)no1 (stereo not drawn) | inconclusive: -54.9%
CCOC(=O)c1nnn(-c2nonc2-n2cccc2)c1CCl | inconclusive: -42.7%
O=C(Nc1cc(C(F)(F)F)ccc1-n1cnc2ccccc21)c1ccccc1 | inconclusive: -40.6%
CCCCCSc1nc2sc3c(c2c(=O)n1-c1ccc(OC)cc1)CCN(C(C)=O)C3 | inconclusive: -43.5%
Cc1cccc(-n2cnc3c(sc4nc(N5CCOCC5)c5c(c43)CCCC5)c2=O)c1 | inconclusive: -45.2%
Cc1c(NC(=O)C(C)Oc2ccc(Br)cc2Cl)c(=O)n(-c2ccccc2)n1C (stereo not drawn) | inconclusive: -43.8%
O=C(COC(=O)Cc1c(Cl)cccc1Cl)NC1CCCC1 | inconclusive: -46.6%
CC(C)C(NC(=O)c1ccccc1NC(=O)c1ccco1)C(=O)NNC(=O)c1ccncc1 (stereo not drawn) | inconclusive: -55.6%
Cc1ccc(S(=O)(=O)N(C)C)cc1NC(=O)CN1C(=O)NC(Cc2ccccc2)C1=O (stereo not drawn) | inconclusive: -43.9%
O=C(CCCc1ccccc1)Nc1ccccn1 | inconclusive: -47.2%
CC(/C=C/c1ccc2c(c1)OCO2)=N/NC(=O)c1ccncc1 | inconclusive: -48.4%
O=C(O)CC(CNS(=O)(=O)c1ccccc1)c1ccccc1 (stereo not drawn) | active: -75.3%
O=C(NN1C(=O)C2C(C1=O)C1C=CC2C12CC2)c1cccnc1 (stereo not drawn) | inconclusive: -40.5%
O=C(CSc1nc(O)cc(=O)[nH]1)N1c2ccccc2CCc2ccccc21 | inconclusive: -48.6%
N#CC(=C1NC(=O)c2ccccc21)c1nc2ccccc2n1CCO | inconclusive: -45.6%
O=C(NC1CCCC1)C(c1ccc(F)cc1)N(C(=O)Cc1cccs1)c1ccc2c(c1)OCCO2 (stereo not drawn) | inactive: -5.9%
COc1ccc(NC(=O)CN(C)S(=O)(=O)c2ccc3c(c2)CCCN3C(C)=O)cc1 | inconclusive: -42.9%
O=C(Nc1ccncc1)Nc1cccc(Cl)c1 | inactive: 13.8%

Already shown: 4 of the compounds above.
SMILES | activity change, negative = inhibition
Cn1nc(C(C)(C)C)cc1C(=O)N1CCCCC1c1cc(C(=O)Nc2ccccc2Cl)no1 (stereo not drawn) | inconclusive: -54.9%
CCOC(=O)c1nnn(-c2nonc2-n2cccc2)c1CCl | inconclusive: -42.7%
O=C(Nc1cc(C(F)(F)F)ccc1-n1cnc2ccccc21)c1ccccc1 | inconclusive: -40.6%
CCCCCSc1nc2sc3c(c2c(=O)n1-c1ccc(OC)cc1)CCN(C(C)=O)C3 | inconclusive: -43.5%
